Results published in the supplement of paper PMC10849652.
The list shows a part of the results.

Chains of the proteins cited; added tags and fusions are not shown. Lines headed by an entry give the natural chain unless they say otherwise; changes in a name come on top.
UniProt Q7KZN9: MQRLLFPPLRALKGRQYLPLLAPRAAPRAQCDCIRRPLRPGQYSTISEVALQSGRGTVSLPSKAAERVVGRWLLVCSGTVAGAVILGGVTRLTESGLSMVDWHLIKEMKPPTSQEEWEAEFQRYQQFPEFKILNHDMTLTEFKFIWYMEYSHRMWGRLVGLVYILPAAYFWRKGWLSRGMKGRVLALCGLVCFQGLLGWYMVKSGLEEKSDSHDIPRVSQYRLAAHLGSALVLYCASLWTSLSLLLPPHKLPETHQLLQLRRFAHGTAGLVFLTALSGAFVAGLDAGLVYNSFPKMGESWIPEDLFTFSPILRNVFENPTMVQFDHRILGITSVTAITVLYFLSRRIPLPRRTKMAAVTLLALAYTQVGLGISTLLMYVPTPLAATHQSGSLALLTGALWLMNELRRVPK
UniProt P83436: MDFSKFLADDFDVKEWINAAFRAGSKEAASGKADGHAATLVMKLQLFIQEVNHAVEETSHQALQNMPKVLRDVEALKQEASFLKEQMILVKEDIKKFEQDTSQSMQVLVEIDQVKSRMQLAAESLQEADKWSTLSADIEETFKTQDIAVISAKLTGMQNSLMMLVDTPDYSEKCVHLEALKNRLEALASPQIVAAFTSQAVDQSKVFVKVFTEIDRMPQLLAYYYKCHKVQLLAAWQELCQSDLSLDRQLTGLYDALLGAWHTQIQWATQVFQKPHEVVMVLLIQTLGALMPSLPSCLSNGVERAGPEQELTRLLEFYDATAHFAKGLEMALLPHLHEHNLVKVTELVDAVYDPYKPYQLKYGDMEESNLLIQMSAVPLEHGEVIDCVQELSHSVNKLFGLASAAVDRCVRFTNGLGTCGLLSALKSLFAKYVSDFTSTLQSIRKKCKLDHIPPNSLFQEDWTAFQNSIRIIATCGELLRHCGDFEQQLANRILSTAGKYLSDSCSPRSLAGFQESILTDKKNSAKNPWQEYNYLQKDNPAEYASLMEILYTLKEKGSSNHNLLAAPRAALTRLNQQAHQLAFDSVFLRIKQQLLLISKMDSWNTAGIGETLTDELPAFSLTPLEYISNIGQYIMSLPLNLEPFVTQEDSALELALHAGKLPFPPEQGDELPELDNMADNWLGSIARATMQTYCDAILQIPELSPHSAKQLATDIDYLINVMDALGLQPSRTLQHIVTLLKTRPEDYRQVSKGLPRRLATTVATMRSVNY
UniProt Q9Y6G5, whole entry, looked up: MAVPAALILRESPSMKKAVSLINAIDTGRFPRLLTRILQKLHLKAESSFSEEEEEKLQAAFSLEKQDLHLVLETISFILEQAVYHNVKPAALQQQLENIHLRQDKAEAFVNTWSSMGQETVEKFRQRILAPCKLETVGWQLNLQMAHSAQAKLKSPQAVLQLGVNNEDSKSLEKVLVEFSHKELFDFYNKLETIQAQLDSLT
UniProt Q9UBI1, whole entry, looked up: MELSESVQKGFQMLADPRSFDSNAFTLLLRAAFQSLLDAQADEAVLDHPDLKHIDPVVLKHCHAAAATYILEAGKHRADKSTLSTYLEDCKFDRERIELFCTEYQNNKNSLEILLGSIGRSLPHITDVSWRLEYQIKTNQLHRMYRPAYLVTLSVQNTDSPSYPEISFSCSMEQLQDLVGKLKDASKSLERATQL
UniProt Q9Y646: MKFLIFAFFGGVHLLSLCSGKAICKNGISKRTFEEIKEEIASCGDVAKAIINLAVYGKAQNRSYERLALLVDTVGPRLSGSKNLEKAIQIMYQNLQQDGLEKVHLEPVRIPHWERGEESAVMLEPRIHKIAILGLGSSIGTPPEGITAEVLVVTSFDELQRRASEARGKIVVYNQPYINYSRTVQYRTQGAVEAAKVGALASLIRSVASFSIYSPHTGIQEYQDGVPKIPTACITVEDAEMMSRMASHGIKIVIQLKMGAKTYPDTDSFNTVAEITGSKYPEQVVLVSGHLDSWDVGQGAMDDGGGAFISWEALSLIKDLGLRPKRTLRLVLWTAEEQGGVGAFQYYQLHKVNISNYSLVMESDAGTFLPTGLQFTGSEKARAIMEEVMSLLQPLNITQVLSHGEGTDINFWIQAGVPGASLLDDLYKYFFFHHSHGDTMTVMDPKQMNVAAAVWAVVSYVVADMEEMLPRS
UniProt P13073, whole entry, looked up: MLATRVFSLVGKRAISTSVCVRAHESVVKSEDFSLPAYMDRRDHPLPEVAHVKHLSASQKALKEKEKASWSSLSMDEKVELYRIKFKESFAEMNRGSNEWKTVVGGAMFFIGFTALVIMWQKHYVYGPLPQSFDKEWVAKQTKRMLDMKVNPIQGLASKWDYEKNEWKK
UniProt Q9P003: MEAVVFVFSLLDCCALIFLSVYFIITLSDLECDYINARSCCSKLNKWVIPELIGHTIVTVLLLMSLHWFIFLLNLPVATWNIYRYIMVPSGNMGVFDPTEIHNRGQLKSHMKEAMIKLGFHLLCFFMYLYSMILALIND
UniProt Q9BRF8, whole entry, looked up: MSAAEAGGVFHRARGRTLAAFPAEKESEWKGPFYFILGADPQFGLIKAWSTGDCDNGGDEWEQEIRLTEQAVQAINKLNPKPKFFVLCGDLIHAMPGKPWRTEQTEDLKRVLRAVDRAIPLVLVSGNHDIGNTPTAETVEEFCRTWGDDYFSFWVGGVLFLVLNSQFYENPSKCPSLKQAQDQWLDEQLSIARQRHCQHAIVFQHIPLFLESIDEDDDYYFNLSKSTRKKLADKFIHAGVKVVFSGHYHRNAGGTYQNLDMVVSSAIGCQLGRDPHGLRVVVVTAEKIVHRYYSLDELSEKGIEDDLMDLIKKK
UniProt Q86VU5: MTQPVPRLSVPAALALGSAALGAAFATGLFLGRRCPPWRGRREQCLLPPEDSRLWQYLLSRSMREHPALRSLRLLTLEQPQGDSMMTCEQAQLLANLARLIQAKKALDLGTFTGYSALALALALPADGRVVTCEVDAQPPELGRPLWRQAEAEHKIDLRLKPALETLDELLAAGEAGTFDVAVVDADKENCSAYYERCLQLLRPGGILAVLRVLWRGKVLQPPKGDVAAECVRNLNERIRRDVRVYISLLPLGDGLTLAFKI
UniProt P10606, whole entry, looked up: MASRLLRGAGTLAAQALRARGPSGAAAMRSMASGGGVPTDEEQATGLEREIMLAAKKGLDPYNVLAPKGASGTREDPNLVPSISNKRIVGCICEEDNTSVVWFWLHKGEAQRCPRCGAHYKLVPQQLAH
UniProt Q9UBF2: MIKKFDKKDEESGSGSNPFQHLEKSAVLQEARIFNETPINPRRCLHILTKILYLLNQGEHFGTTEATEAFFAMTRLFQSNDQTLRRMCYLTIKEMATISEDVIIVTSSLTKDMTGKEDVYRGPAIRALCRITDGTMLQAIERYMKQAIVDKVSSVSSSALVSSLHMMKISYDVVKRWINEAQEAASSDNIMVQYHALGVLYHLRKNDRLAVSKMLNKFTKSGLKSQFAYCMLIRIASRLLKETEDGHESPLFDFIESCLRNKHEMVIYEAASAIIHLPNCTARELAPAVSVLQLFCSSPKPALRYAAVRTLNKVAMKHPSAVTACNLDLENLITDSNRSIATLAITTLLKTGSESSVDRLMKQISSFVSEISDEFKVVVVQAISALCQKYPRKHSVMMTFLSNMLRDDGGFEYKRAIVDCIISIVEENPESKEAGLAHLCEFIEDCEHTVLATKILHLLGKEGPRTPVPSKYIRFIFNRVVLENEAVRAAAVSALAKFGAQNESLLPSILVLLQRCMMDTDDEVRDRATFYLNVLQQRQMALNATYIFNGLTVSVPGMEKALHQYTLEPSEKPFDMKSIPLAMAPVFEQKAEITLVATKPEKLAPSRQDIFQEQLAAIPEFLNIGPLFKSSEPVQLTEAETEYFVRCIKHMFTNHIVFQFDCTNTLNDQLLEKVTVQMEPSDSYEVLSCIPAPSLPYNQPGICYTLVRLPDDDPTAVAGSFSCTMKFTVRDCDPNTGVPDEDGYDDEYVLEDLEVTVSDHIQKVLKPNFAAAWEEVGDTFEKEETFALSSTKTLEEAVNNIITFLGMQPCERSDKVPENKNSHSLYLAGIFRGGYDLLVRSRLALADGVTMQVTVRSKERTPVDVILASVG
UniProt Q8NE01: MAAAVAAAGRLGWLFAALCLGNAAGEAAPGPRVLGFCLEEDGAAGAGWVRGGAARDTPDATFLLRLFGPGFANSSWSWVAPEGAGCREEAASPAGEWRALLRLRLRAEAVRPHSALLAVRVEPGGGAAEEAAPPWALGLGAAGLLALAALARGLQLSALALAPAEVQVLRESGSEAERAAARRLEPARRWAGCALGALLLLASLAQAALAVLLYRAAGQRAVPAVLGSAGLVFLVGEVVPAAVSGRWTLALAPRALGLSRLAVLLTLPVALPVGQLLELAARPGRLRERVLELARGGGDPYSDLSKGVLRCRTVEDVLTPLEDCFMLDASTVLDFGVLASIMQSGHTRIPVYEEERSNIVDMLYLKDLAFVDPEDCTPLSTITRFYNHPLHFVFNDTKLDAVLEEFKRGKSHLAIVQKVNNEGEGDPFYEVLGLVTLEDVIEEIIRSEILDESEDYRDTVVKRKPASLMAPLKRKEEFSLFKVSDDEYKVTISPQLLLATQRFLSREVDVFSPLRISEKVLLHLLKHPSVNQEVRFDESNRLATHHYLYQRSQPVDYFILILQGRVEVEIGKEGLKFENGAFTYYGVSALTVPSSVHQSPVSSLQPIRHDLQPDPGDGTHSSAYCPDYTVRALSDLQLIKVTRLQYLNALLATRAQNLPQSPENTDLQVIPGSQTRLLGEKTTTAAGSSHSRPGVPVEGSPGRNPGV
UniProt Q13057: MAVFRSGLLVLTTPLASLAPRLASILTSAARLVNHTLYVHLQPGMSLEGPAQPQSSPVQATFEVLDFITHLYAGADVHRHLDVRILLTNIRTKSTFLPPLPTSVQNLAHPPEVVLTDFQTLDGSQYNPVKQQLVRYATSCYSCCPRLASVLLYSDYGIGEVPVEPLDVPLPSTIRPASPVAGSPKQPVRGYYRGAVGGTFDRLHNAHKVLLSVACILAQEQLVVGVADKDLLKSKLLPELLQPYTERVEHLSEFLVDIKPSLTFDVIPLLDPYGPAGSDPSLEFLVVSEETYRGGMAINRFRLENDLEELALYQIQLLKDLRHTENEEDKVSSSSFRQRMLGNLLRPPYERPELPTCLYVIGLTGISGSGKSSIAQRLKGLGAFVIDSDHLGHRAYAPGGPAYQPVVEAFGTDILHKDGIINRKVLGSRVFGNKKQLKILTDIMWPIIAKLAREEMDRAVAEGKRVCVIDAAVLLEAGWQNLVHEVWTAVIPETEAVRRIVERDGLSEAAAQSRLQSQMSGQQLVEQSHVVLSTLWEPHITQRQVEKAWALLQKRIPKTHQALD
UniProt Q5HYK3: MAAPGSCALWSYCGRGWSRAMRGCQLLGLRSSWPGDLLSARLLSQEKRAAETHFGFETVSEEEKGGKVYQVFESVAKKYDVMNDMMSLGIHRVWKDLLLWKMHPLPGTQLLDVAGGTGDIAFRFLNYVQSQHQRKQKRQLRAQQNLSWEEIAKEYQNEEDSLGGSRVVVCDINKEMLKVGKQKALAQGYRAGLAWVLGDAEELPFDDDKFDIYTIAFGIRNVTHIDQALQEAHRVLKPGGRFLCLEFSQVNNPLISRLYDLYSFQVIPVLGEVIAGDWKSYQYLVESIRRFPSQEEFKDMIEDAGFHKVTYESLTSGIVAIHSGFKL
UniProt P31146: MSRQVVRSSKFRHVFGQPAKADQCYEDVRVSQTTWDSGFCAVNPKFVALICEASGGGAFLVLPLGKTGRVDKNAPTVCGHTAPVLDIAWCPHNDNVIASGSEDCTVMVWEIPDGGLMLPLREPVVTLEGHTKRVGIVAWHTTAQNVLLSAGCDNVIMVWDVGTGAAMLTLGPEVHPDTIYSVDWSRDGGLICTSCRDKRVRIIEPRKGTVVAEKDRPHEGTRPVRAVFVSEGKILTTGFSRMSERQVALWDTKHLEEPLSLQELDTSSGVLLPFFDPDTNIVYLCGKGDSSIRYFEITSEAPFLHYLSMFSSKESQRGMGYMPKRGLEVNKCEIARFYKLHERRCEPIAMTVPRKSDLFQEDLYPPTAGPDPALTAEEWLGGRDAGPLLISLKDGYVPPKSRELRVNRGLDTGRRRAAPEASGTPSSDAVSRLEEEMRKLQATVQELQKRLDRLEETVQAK
UniProt Q9Y2B0: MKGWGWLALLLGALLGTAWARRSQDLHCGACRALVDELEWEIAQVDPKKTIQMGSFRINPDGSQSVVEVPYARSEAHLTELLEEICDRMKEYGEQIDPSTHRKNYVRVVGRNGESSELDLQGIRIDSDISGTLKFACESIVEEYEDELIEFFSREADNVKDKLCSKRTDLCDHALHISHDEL
UniProt Q92600, whole entry, looked up: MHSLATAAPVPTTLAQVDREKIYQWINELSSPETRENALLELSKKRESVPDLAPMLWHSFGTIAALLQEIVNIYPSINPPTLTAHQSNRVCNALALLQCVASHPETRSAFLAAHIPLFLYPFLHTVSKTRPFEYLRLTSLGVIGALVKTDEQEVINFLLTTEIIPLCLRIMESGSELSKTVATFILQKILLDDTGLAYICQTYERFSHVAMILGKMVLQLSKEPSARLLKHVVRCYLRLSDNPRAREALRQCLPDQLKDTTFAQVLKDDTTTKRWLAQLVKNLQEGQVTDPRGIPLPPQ

What was measured:
Experiment in all cases: log2 fold change, soluble protein after heating vs DMSO (PISA); higher = thermal stabilisation; K562 lysate, 10 uM; active = over 0.2 and 3.5 SD of the protein, either way, in both replicates (recomputed)
[1] = compound: Cc1cn(-c2cc(NC(=O)c3ccc(C)c(Nc4nccc(-c5cccnc5)n4)c3)cc(C(F)(F)F)c2)cn1 [nilotinib]
Method in brief: (§1)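 To prepare the extract, K562 pellets were dounce-homogenised in PBS pH 7.4 with 1 mM MgCl2, giving crude material at 1 mg/mL protein. This was treated with 10 μM compound for 30 min, then heated in aliquots for 3 min over 48°C-58°C before pooling and addition of NP-40 to 0.5% at 4°C. Centrifugation at 21,000xg for 90 min left soluble protein in the supernatant, which TMTpro 16plex LC-MS/MS quantified with equalised channel sums. Results are log-two fold changes in thermal stability compared with solvent controls, from duplicates.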

[2] = compound: Cc1nc(Nc2n[nH]c3c2CN(C(=O)N[C@H](CN(C)C)c2ccccc2)C3(C)C)c2sccc2n1
Method in brief: as §1

[3] = compound: Cc1nc(Nc2ncc(C(=O)Nc3c(C)cccc3Cl)s2)cc(N2CCN(CCO)CC2)n1 [dasatinib]
Method in brief: as §1

[4] = compound: Cc1ncc(-c2ccnc(Nc3ccc(S(C)(=O)=O)cc3)n2)n1C(C)C
Method in brief: as §1

[5] = compound: Cn1cc(-c2ccc3c(c2)CCN3C(=O)Cc2cccc(C(F)(F)F)c2)c2c(N)ncnc21
Method in brief: as §1

[6] = compound: Cn1cc(CNCC2CCN(c3ncc(C(=O)NO)cn3)CC2)c2ccccc21 [quisinostat]
Method in brief: as §1

[7] = compound: Cn1cncc1[C@@](N)(c1ccc(Cl)cc1)c1ccc2c(c1)c(-c1cccc(Cl)c1)cc(=O)n2C [tipifarnib]
Method in brief: as §1

[8] = compound: NC(=O)Nc1cc(-c2cccc(F)c2)sc1C(=O)N[C@H]1CCCNC1
Method in brief: as §1

[9] = compound: NC(=O)c1cnc(N[C@@H]2CCCC[C@@H]2N)nc1Nc1cccc(-n2nccn2)c1
Method in brief: as §1

[10] = compound: NC1(c2ccc(-c3nc4ccn5c(=O)[nH]nc5c4cc3-c3ccccc3)cc2)CCC1
Method in brief: as §1

[11] = compound: NCC(=O)Nc1ccc(-n2nc(C(F)(F)F)cc2-c2ccc3c(ccc4ccccc43)c2)cc1
Method in brief: as §1

[12] = compound: O=C(CCCCCCC(=O)Nc1ccccc1)NO [vorinostat]
Method in brief: as §1

[13] = compound: O=C(O)c1ccc2c(c1)nc(Nc1cccc(Cl)c1)c1ccncc12 [silmitasertib]
Method in brief: as §1

[14] = compound: O=C1NC(=O)C(c2cnc3ccccn23)=C1c1cn2c3c(cc(F)cc13)CN(C(=O)N1CCCCC1)CC2
Method in brief: as §1

[15] = compound: c1cn2cc(-c3ccc4cn[nH]c4c3)nc(Nc3ccc(N4CCOCC4)cc3)c2n1 [entospletinib]
Method in brief: as §1

Measured: log2 fold change

COX15 (UniProt Q7KZN9)
inactive: [1] 0.028 | [2] -0.032 | [3] -0.006 | [4] 0.011 | [5] 0 | [6] -0.052 | [7] -0.025 | [8] 0.003 | [9] -0.028 | [10] -0.034 | [11] -0.035 | [12] 0.118 | [13] 0.016 | [14] -0.007 | [15] 0.003

COG7 (UniProt P83436)
inactive: [1] 0.02 | [2] 0.007 | [3] -0.089 | [4] 0.011 | [5] 0.024 | [6] 0 | [7] -0.001 | [8] 0.033 | [9] -0.019 | [10] 0.001 | [11] -0.013 | [13] 0.06 | [14] 0.034 | [15] 0.033
active: [12] -0.287

COMMD10 (UniProt Q9Y6G5)
inactive: [1] -0.032 | [2] -0.018 | [3] 0.007 | [4] 0.021 | [5] -0.034 | [6] 0.049 | [7] 0.02 | [8] -0.032 | [9] -0.046 | [10] -0.02 | [11] 0.044 | [12] 0.013 | [13] 0.048 | [14] -0.031 | [15] 0.015

COMMD3 (UniProt Q9UBI1)
inactive: [1] 0.009 | [2] 0.006 | [3] -0.066 | [4] 0.07 | [5] -0.013 | [6] -0.006 | [7] 0.03 | [8] -0.043 | [9] -0.01 | [10] -0.017 | [11] 0.042 | [12] -0.166 | [13] 0.004 | [14] 0.028 | [15] -0.038

CPQ (UniProt Q9Y646)
inactive: [1] 0.011 | [2] 0.055 | [3] 0.001 | [4] -0.013 | [5] 0.016 | [6] -0.037 | [7] -0.043 | [8] -0.008 | [9] -0.021 | [10] 0.022 | [11] -0.001 | [12] 0.127 | [13] 0.019 | [14] 0.013 | [15] 0.006

COX4I1 (UniProt P13073)
inactive: [1] 0.038 | [2] -0.01 | [3] -0.016 | [4] 0.019 | [5] -0.03 | [6] 0.024 | [7] 0.075 | [8] 0.016 | [9] -0.046 | [10] 0.011 | [11] 0.035 | [12] 0.17 | [13] -0.023 | [14] 0.025 | [15] 0.022

CNIH4 (UniProt Q9P003)
inactive: [1] 0.074 | [2] -0.327 | [3] 0.132 | [4] -0.12 | [5] 0.063 | [6] -0.068 | [8] 0.088 | [9] 0.076 | [10] -0.136 | [11] 0.09 | [12] 0.08 | [13] 0.055 | [14] 0.114 | [15] 0.038
active: [7] -0.515

CPPED1 (UniProt Q9BRF8)
inactive: [1] -0.035 | [2] 0.044 | [3] -0.047 | [4] -0.032 | [5] -0.016 | [6] -0.091 | [7] 0.021 | [8] -0.021 | [9] -0.001 | [10] 0.001 | [11] 0.014 | [12] 0.053 | [13] 0.009 | [14] -0.041 | [15] -0.01

COMTD1 (UniProt Q86VU5)
inactive: [1] 0.311 | [2] -0.273 | [3] -0.058 | [4] 0.014 | [5] 0.001 | [6] 0.021 | [7] -0.135 | [8] -0.031 | [9] 0.093 | [10] -0.002 | [11] -0.001 | [12] -0.349 | [13] 0.167 | [14] 0.02 | [15] 0.001

COX5B (UniProt P10606)
inactive: [1] 0.079 | [2] 0.03 | [3] 0.011 | [4] 0.147 | [5] -0.078 | [6] 0.013 | [7] 0.067 | [8] -0.041 | [9] -0.048 | [10] 0.034 | [11] -0.06 | [12] 0.28 | [13] -0.064 | [14] 0.043 | [15] -0.051

COPG2 (UniProt Q9UBF2)
inactive: [1] 0.024 | [2] -0.002 | [3] -0.038 | [4] 0.008 | [5] 0.004 | [6] -0.006 | [7] -0.017 | [8] 0.017 | [9] -0.013 | [10] 0.002 | [11] 0.042 | [12] 0.069 | [13] -0.018 | [14] 0.014 | [15] 0.016

CNNM3 (UniProt Q8NE01)
inactive: [1] 0.001 | [2] -0.034 | [3] -0.001 | [4] -0.013 | [5] -0.012 | [6] -0.02 | [7] -0.061 | [8] 0.037 | [9] 0.037 | [10] -0.035 | [11] 0.038 | [12] 0.123 | [13] 0.005 | [14] 0.007 | [15] 0.028

COASY isoform 2 (UniProt Q13057)
active: [12] -0.214
inactive: [1] -0.043 | [2] -0.015 | [3] -0.071 | [4] -0.023 | [5] 0.069 | [6] -0.078 | [7] 0.012 | [8] 0.041 | [9] -0.023 | [10] -0.046 | [11] 0.018 | [13] 0.075 | [14] 0.006 | [15] 0.019

Two consecutive records out of the list so far, for reference:
COPG2 (UniProt Q9UBF2)
inactive: [1] 0.024 | [2] -0.002 | [3] -0.038 | [4] 0.008 | [5] 0.004 | [6] -0.006 | [7] -0.017 | [8] 0.017 | [9] -0.013 | [10] 0.002 | [11] 0.042 | [12] 0.069 | [13] -0.018 | [14] 0.014 | [15] 0.016

CNNM3 (UniProt Q8NE01)
inactive: [1] 0.001 | [2] -0.034 | [3] -0.001 | [4] -0.013 | [5] -0.012 | [6] -0.02 | [7] -0.061 | [8] 0.037 | [9] 0.037 | [10] -0.035 | [11] 0.038 | [12] 0.123 | [13] 0.005 | [14] 0.007 | [15] 0.028

Additional entries

COQ5 (UniProt Q5HYK3)
inactive: [1] 0.006 | [2] 0.012 | [3] -0.025 | [4] -0.008 | [5] 0.001 | [6] -0.043 | [7] 0.004 | [8] 0.002 | [9] -0.027 | [10] 0.022 | [11] -0.005 | [12] -0.05 | [13] 0.02 | [14] -0.023 | [15] 0

CORO1A (UniProt P31146)
active: [12] -0.412
inactive: [1] 0.003 | [2] -0.012 | [3] -0.146 | [4] 0.022 | [5] 0.034 | [6] -0.028 | [7] 0.032 | [8] -0.015 | [9] -0.017 | [10] -0.026 | [11] 0.094 | [13] -0.003 | [14] 0.025 | [15] 0.116

CNPY2 (UniProt Q9Y2B0)
inactive: [1] 0.01 | [2] -0.005 | [3] 0.047 | [4] -0.048 | [5] -0.01 | [6] 0.013 | [7] -0.005 | [8] -0.02 | [9] -0.016 | [10] 0.006 | [11] -0.02 | [12] 0.018 | [13] -0.026 | [14] -0.059 | [15] -0.009

CNOT9 (UniProt Q92600)
inactive: [1] 0.021 | [2] -0.015 | [3] -0.023 | [4] 0.016 | [5] -0.016 | [6] -0.044 | [7] -0.043 | [8] 0.022 | [9] 0.01 | [10] -0.022 | [11] -0.022 | [12] -0.113 | [13] 0 | [14] 0.018 | [15] 0.018

CNTRL (UniProt Q7Z7A1)
inactive: [1] 0.009 | [2] 0.025 | [3] 0.035 | [4] -0.002 | [5] -0.007 | [6] -0.11 | [7] -0.052 | [8] 0.002 | [10] -0.035 | [11] -0.018 | [12] -0.092 | [13] 0.036 | [14] -0.008 | [15] -0.043
